Measured values published in article PMC12120788.
Results are given in words; binding and its absence hold for the method and conditions named. In cells and extracts the contact can be indirect. Some entries that bind do so weakly or less than the wild type. Sequences can lack the tags named with a protein.

Molecular target: T1, PPY-Flag (pancreatic polypeptide, predominant splicing variant, Flag-tagged) (human) (UniProt P01298)
T1 sequence: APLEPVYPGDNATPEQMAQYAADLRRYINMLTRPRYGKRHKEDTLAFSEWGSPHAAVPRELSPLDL
Assay: co-IP; human CAFs transfected with EGFR-HA plasmid and treated with enriched PPY-Flag supernatant for 24 h; anti-Flag antibody pulls down PPY; blots with anti-Flag and anti-HA

EGFR-HA (epidermal growth factor receptor, HA-tagged) (from UniProt P00533 25-1210)
binding: binds
